# Assay results: PMC11045800
# No constants are given. Whether binding was seen depends on the method and setting. For part of these data: In cells and extracts the contact can be indirect. Some entries that bind do so weakly or less than the wild type.
# T1: TANK-binding kinase 1 (TBK1), endogenous in AC16 human cardiomyocytes (human (endogenous in AC16)), Q9UHD2
# T1 chain: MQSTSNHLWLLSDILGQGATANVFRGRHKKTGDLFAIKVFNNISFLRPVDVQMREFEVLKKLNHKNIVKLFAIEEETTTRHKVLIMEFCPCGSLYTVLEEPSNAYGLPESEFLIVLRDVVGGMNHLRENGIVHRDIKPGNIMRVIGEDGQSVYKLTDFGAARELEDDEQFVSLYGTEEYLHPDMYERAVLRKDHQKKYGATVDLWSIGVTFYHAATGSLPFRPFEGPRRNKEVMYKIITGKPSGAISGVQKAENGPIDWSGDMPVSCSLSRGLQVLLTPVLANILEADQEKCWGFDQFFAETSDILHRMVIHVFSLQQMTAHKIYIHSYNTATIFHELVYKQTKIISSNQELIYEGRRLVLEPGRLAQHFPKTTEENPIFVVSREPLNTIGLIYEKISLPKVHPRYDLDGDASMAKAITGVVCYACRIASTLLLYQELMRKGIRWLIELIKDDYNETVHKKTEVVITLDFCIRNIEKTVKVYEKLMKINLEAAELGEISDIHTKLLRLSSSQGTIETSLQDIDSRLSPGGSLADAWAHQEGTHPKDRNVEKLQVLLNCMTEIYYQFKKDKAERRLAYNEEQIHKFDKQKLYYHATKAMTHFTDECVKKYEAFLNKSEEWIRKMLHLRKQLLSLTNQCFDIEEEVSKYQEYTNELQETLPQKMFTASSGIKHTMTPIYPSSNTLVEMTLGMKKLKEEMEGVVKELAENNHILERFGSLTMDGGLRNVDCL
# T2: protein kinase RNA-like ER kinase (PERK), endogenous in mouse primary neonatal cardiomyocytes (mouse (endogenous in primary neonatal cardiomyocytes)) (UniProt Q9Z2B5)
# T2 sequence: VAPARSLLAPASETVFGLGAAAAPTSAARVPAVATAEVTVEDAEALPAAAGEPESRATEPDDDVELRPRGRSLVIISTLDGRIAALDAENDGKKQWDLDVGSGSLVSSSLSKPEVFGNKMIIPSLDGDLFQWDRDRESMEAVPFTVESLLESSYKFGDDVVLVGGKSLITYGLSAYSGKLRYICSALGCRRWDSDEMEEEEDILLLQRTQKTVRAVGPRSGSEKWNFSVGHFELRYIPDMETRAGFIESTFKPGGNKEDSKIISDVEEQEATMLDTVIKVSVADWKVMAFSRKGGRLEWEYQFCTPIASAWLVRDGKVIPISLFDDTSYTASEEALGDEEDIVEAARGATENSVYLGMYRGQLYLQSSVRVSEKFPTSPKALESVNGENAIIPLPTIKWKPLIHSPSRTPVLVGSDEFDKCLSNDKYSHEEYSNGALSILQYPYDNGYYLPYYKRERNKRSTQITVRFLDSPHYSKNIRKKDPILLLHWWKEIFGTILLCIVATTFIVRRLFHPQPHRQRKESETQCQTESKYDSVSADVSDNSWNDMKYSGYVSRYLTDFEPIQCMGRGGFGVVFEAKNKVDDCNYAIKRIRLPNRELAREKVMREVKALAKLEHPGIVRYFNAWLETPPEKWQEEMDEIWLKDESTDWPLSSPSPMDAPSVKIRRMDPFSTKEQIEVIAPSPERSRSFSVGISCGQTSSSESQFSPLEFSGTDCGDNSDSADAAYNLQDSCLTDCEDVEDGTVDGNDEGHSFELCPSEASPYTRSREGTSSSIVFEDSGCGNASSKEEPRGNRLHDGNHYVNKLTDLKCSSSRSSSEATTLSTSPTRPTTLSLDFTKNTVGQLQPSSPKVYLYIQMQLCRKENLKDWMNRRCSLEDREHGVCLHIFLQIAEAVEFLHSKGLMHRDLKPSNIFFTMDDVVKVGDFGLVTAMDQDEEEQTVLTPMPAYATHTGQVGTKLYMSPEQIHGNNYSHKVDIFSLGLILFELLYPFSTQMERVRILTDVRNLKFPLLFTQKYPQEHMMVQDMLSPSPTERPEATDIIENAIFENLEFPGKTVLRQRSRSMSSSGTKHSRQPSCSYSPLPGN
# T3: active phosphorylated PERK (pPERK), endogenous in mouse primary neonatal cardiomyocytes (mouse (endogenous in primary neonatal cardiomyocytes)) (UniProt Q9Z2B5)
# T3 sequence (chain, phosphorylated (site not stated)): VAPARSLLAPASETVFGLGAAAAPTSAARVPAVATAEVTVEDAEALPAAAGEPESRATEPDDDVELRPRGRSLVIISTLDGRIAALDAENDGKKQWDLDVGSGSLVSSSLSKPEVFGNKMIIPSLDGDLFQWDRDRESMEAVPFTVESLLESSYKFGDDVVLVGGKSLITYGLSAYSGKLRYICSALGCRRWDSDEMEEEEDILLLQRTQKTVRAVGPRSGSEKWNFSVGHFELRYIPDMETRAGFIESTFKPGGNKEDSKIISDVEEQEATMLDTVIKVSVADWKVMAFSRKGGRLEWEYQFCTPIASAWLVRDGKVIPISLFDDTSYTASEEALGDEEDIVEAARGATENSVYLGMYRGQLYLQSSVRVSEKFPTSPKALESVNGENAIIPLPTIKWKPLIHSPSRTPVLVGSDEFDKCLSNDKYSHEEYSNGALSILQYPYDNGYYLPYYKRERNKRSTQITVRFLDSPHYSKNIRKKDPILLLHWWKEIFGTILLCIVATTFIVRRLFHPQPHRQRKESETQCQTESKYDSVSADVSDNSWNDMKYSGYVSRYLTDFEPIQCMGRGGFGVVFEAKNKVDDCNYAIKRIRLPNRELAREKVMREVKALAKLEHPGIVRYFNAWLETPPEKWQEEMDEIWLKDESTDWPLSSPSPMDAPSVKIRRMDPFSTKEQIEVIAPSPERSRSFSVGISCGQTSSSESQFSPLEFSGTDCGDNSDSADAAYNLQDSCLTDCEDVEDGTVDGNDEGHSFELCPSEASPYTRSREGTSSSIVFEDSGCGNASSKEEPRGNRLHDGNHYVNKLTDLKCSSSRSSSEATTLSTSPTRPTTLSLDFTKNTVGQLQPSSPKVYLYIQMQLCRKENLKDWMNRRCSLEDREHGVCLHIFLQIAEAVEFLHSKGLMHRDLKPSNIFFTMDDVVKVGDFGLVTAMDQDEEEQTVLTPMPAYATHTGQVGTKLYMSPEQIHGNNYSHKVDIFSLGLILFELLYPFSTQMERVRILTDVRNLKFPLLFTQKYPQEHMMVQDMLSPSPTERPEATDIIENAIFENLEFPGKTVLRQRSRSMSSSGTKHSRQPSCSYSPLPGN
# What was measured:
# [1] = molecular target: T1, TANK-binding kinase 1 (TBK1), …; experiment: native gel or EMSA; immunoblot of native TBK1 monomer and dimer in cardiomyocytes with TRIM29 knockout (mouse) or knockdown (human AC16), infected with CVB3 or EMCV for 6 h at MOI 5; settings: remark: other sources report otherwise
# [2] = molecular target: T2, protein kinase RNA-like ER kinase (PERK), endogenous in mouse primary neonatal cardiomyocytes (mouse (endogenous in primary neonatal cardiomyocytes)); experiment: co-IP; endogenous proteins; whole-cell lysates of mouse primary neonatal cardiomyocytes (Trim29fl/fl or WT MyHC-Cre) infected with CVB3 or EMCV for 6 h at MOI 5; anti-PERK or control IgG, protein A/G beads; blot with anti-TRIM29 and anti-PERK
# [3] = molecular target: T3, active phosphorylated PERK (pPERK), endogenous in mouse primary neonatal cardiomyocytes (mouse (endogenous in primary neonatal cardiomyocytes)); experiment: co-IP; endogenous proteins; whole-cell lysates of mouse primary neonatal cardiomyocytes (Trim29fl/fl) infected with CVB3 at MOI 5 and treated with DMSO for 6 h; anti-pPERK or control IgG
binding [1],binding [2],binding [3],Binder
binds,–,–,"TANK-binding kinase 1 (TBK1), endogenous in AC16 human cardiomyocytes, Q9UHD2 1-729 (protein) MQSTSNHLWLLSDILGQGATANVFRGRHKKTGDLFAIKVFNNISFLRPVDVQMREFEVLKKLNHKNIVKLFAIEEETTTRHKVLIMEFCPCGSLYTVLEEPSNAYGLPESEFLIVLRDVVGGMNHLRENGIVHRDIKPGNIMRVIGEDGQSVYKLTDFGAARELEDDEQFVSLYGTEEYLHPDMYERAVLRKDHQKKYGATVDLWSIGVTFYHAATGSLPFRPFEGPRRNKEVMYKIITGKPSGAISGVQKAENGPIDWSGDMPVSCSLSRGLQVLLTPVLANILEADQEKCWGFDQFFAETSDILHRMVIHVFSLQQMTAHKIYIHSYNTATIFHELVYKQTKIISSNQELIYEGRRLVLEPGRLAQHFPKTTEENPIFVVSREPLNTIGLIYEKISLPKVHPRYDLDGDASMAKAITGVVCYACRIASTLLLYQELMRKGIRWLIELIKDDYNETVHKKTEVVITLDFCIRNIEKTVKVYEKLMKINLEAAELGEISDIHTKLLRLSSSQGTIETSLQDIDSRLSPGGSLADAWAHQEGTHPKDRNVEKLQVLLNCMTEIYYQFKKDKAERRLAYNEEQIHKFDKQKLYYHATKAMTHFTDECVKKYEAFLNKSEEWIRKMLHLRKQLLSLTNQCFDIEEEVSKYQEYTNELQETLPQKMFTASSGIKHTMTPIYPSSNTLVEMTLGMKKLKEEMEGVVKELAENNHILERFGSLTMDGGLRNVDCL"
–,binds,binds,"TRIM29, endogenous in mouse primary neonatal cardiomyocytes (protein, UniProt Q8R2Q0 1-587) MEGADACRSNGASPEARDTRSPPGPSGSLENGTKADSKDTKTTNGHSGEVTEGKTLGSALKSGEGKSGLFSSNEWRRPIIQFVESVDDKGSSYFSMDSAEGRRSPYAGLQLGASKKPPVTFAEKGELRKSIFSEPRKPTVTIVEPGEVRRNSYPRADSSLLARAKSGSEEVLCDSCIGNKQKAVKSCLVCQASFCELHLKPHLEGAAFRDHQLLEPIRDFEARKCPLHGKTMELFCQTDQTCICYLCMFQEHKNHSTVTVEEAKAEKETELSLQKEQLQLKIIEIEDDVEKWQKEKDRIKSFTTNEKAILEQNFRDLVRELEKQKEEVRAALEQREQDAVDQVKVIVDALDERAKVLHEDKQTREQLHNISDSVLFLQEFGALMSNYSLPPPLPTYHVLLEGEGLGQSLGNCKDDLLNVCMRHVEKMCKADLSRNFIERNHMENGGDHRYMNSYTSSYGNEWSTPDTMKRYSMYLTPKGGGRTSYQPSSPSRLSKETNQKNFNNLYGTKGNYTSRVWEYTSTVQNSEDMPTVQGNSSFSLKGFPSLLRSQVPKAQPQTWKSGKQTLLSHYRPFYVNKGSGIGSNEAP"
